In patent publication US20230227838A1, “ENHANCED CELL SURVIVAL AGAINST BIOTIC AND ABIOTIC STRESSES THROUGH SALICYLICK ACID-INDUCED NPR1 CONDENSATES” (priority 2020, published 2023):

System: sim3-GFP
Assay: Quantitative LC-MS/MS of sim3-GFP interactome (SINC components)
Parameters: species or system Arabidopsis thaliana
Settings: protein enrichment in the sim3-GFP interactome (SINC components), SA-treated samples versus mock

Compared with AT2G26560, AT3G06720 is lower in “Normalized Fold Change: SA vs Mock” value: 3.961 for the first, 2.092 for the second.

First: AT3G13870
Second: AT5G54310
The “Normalized Fold Change: SA vs Mock” value of the first is lower: 2.859 for the first, 8.653 for the second.
